PubChem BioAssay AID1224828, NIAID | 2016

- Screen: 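Knock-downs that increase or decrease LPS-induced p65 nuclear translocation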 (primary screen)
- Cell system: mouse RAW264.7 G9 macrophage reporter cells (GFP-p65, Tnf promoter-mCherry)
- Knock-down reagent: siRNA pool against mouse genes, 100 nM
- Timing: 2 days siRNA transfection, then 40 min LPS before fixation
- Challenge: LPS (Salmonella minnesota R595) at 10 ng/ml
- Read-out: 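Microscopy ratio of nuclear to perinuclear-ring GFP-p65 signal, scaled to the plate median; gene score is the average of two replicate robust z-scores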
- Scale: p65 translocation robust z-score: higher = more nuclear NF-kappaB p65 after LPS than the plate median; nuclear/cytoplasmic p65 ratio: higher = more nuclear NF-kappaB p65
- Call rule: 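Active if robust z is above 3.3 (negative regulators) or below -1.56, the Tlr4 control median (positive regulators); activity score 50 or more; control wells not called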
- Calls: active = hit (p65 shift raised or lowered); inactive = no clear change
This is an unselected part of about 17,000 deposited reagents. 762 of them (4.5%) were called active. 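Active calls include both raised and lowered p65 entry, mostly lowered; wells with fewer than 50 cells lack a z-score.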 Raw values vary from plate to plate and are shown uncorrected. Reagent sequences are not shown.

no.	Target gene	PubChem SID	p65 translocation robust z-score	nuclear/cytoplasmic p65 ratio, rep 1	nuclear/cytoplasmic p65 ratio, rep 2	low cell count flag	Outcome
1	Kras (GeneID 16653)	SID315467680	-1.47	1.28	1.19	enough cells to score	inactive
2	Mnx1 (GeneID 15285)	SID315467218	1.1	1.5	1.59	enough cells to score	inactive
3	Iigp1 (GeneID 60440)	SID315472017	-0.48	1.43	1.54	enough cells to score	inactive
4	Gm10336 (GeneID 328186)	SID315481465	0.91	1.66	1.72	enough cells to score	inactive
5	Cd55 (GeneID 13136)	SID315466258	-0.92	1.37	1.23	enough cells to score	inactive
6	Ttc8 (GeneID 76260)	SID315475271		1.42	1.29	fewer than 50 cells per well; well left out of scoring	inactive
7	Ears2 (GeneID 67417)	SID315473009		1.19	1.27	fewer than 50 cells per well; well left out of scoring	inactive
8	Cdk13 (GeneID 69562)	SID315473831	-0.01	1.66	1.4	enough cells to score	inactive
9	4930486L24Rik (GeneID 214639)	SID315477878	-0.25	1.34	1.28	enough cells to score	inactive
10	Msto1 (GeneID 229524)	SID315478712	-1.34	1.43	1.56	enough cells to score	inactive
11	Eif4e (GeneID 13684)	SID315466476	-0.29	1.37	1.38	enough cells to score	inactive
12	Kdm1a (GeneID 99982)	SID315476199	0.19	1.5	1.38	enough cells to score	inactive
13	Atp6ap1 (GeneID 54411)	SID315471232	-1.35	1.37	1.36	enough cells to score	inactive
14	Secisbp2l (GeneID 70354)	SID315474020		1.36	1.32	fewer than 50 cells per well; well left out of scoring	inactive
15	Nlrp10 (GeneID 244202)	SID315479744	-0.49	1.36	1.29	enough cells to score	inactive
16	Zfp799 (GeneID 240064)	SID315479479	-0.82	1.18	1.43	enough cells to score	inactive
17	Clspn (GeneID 269582)	SID315480864	-0.6	1.36	1.33	enough cells to score	inactive
18	Retreg1 (GeneID 66270)	SID315472331	-0.58	1.28	1.38	enough cells to score	inactive
19	Defb8 (GeneID 244334)	SID315479756	0.92	1.65	1.73	enough cells to score	inactive
20	Ino80e (GeneID 233875)	SID315479115	0.77	1.78	1.74	enough cells to score	inactive
21	Plcd3 (GeneID 72469)	SID315474556	-0.31	1.34	1.18	enough cells to score	inactive
22	Hes1 (GeneID 15205)	SID315467180	-0.97	1.32	1.24	enough cells to score	inactive
23	Tmem176a (GeneID 66058)	SID315472186		1.39	1.55	fewer than 50 cells per well; well left out of scoring	inactive
24	Tbc1d5 (GeneID 72238)	SID315474498		1.45	1.14	fewer than 50 cells per well; well left out of scoring	inactive
25	Tinf2 (GeneID 28113)	SID315470680	0.01	1.52	1.53	enough cells to score	inactive
26	Nkain4 (GeneID 58237)	SID315471891	-0.4	1.33	1.52	enough cells to score	inactive
27	Clmn (GeneID 94040)	SID315476016	0.31	1.78	1.69	enough cells to score	inactive
28	Cdcp2 (GeneID 242603)	SID315479630	-0.71	1.43	1.72	enough cells to score	inactive
29	Gdf2 (GeneID 12165)	SID315465656	0.16	1.43	1.41	enough cells to score	inactive
30	Sema3a (GeneID 20346)	SID315469171	-0.01	1.6	1.5	enough cells to score	inactive
31	Cmbl (GeneID 69574)	SID315473835	0.44	1.67	1.69	enough cells to score	inactive
32	Raet1e (GeneID 379043)	SID315481747	1.24	1.48	1.41	enough cells to score	inactive
33	Plekhf2 (GeneID 71801)	SID315474332	0.8	1.41	1.37	enough cells to score	inactive
34	Sart1 (GeneID 20227)	SID315469099	-0.2	1.56	1.42	enough cells to score	inactive
35	Treh (GeneID 58866)	SID315471925	0.72	1.4	1.32	enough cells to score	inactive
36	Eepd1 (GeneID 67484)	SID315473058	-2	1.23	0.955	enough cells to score	active
37	Cypt4 (GeneID 235067)	SID315479225	0.14	1.41	1.53	enough cells to score	inactive
38	Rgn (GeneID 19733)	SID315468966	-0.07	1.32	1.28	enough cells to score	inactive
39	Klra1 (GeneID 16627)	SID315467659	-0.14	1.42	1.4	enough cells to score	inactive
40	Zfp526 (GeneID 210172)	SID315477635	0.62	1.63	1.32	enough cells to score	inactive
41	C130074G19Rik (GeneID 226777)	SID315478523	1.53	1.68	1.69	enough cells to score	inactive
42	Igf2 (GeneID 16002)	SID315467405	-1.03	1.27	1.27	enough cells to score	inactive
43	Gtf2a1 (GeneID 83602)	SID315475847	0.14	1.4	1.44	enough cells to score	inactive
44	Nags (GeneID 217214)	SID315478092	-1.28	1.58	1.2	enough cells to score	inactive
45	Notch4 (GeneID 18132)	SID315468214	-0.32	1.46	1.32	enough cells to score	inactive
46	Hbs1l (GeneID 56422)	SID315471523	0.16	1.65	1.58	enough cells to score	inactive
47	Ntf5 (GeneID 78405)	SID315475574	0.27	1.44	1.49	enough cells to score	inactive
48	Snx8 (GeneID 231834)	SID315478933		1.23	1.26	fewer than 50 cells per well; well left out of scoring	inactive
49	Sigmar1 (GeneID 18391)	SID315468342	-1.34	1.27	1.24	enough cells to score	inactive
50	Trnt1 (GeneID 70047)	SID315473964	-1.02	1.5	1.23	enough cells to score	inactive
51	Ccl24 (GeneID 56221)	SID315471411	0.61	1.41	1.45	enough cells to score	inactive
52	Sh3kbp1 (GeneID 58194)	SID315471866	0.78	1.59	1.74	enough cells to score	inactive
53	Stoml1 (GeneID 69106)	SID315473724	1	1.58	1.32	enough cells to score	inactive
54	Magohb (GeneID 66441)	SID315472445		1.39	1.16	fewer than 50 cells per well; well left out of scoring	inactive
55	Pcdhb11 (GeneID 93882)	SID315475994		1.63	1.22	fewer than 50 cells per well; well left out of scoring	inactive
56	Lap3 (GeneID 66988)	SID315472758	-1.39	1.31	1.18	enough cells to score	inactive
57	Sec22c (GeneID 215474)	SID315477934	-0.88	1.24	1.19	enough cells to score	inactive
58	Cd59a (GeneID 12509)	SID315465867	-0.18	1.26	1.36	enough cells to score	inactive
59	Yeats4 (GeneID 64050)	SID315472056	-0.09	1.36	1.42	enough cells to score	inactive
